The list shows a part of the results. The main result of the screen is listed elsewhere. These columns were measured beside it and carry no call. Compounds called inactive in the main read-out are mostly missing here. The note in brackets gives the kind of curve behind each potency; many fits are weak.
Assay: qHTS Assay to Find Inhibitors of Chronic Active B-Cell Receptor Signaling
Settings: ABC-DLBCL IkBa-CBG/CBR reporter, luminescence ratio (green luciferase fused to IkBa over red control in TMD8 lymphoma cells), 4 h
How it was run: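 TMD8 human ABC-DLBCL cells with doxycycline-inducible IκBα–green luciferase fusion and unfused red luciferase, in 0.5% FBS medium; compounds up to 46 uM, 4 h at 37C. Green/red luminescence ratio, filter-overlap corrected, fitted to concentration-response curves.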

[1] = measured here: CBR red luminescence, cell number
[2] = measured here: IkBa-CBG green luminescence

SMILES | AC50 [1] | AC50 [2]
O=C(Nc1cc(S(=O)(=O)N2CCOCC2)ccc1O)c1ccc(S(=O)(=O)N2CCCCC2)cc1 | 16.4 µM [rising, partial curve, poor fit] | –
CCn1c(NCc2cc(Cl)ccc2O)nc2ccccc21 | 22.4 µM [falling, single point] | –
COc1ccccc1C(=O)NC(=O)COC(=O)Cc1ccccc1[N+](=O)[O-] | 5.8 µM [rising, full curve, poor fit] | –
CC(=O)N1c2ccccc2C(=O)OC1c1cccnc1 (configuration not stated) | 5.62 µM [rising, single point] | –
CNc1nc(Sc2ccc(C)cc2)cc(C(F)(F)F)n1 | 10 µM [rising, single point] | –
CN(C)CCCNc1oc(-c2ccccc2Cl)nc1S(=O)(=O)c1ccc(F)cc1 | 12.6 µM [falling, single point] | –
CCN1CCN(c2nnc(-c3ccc(C)cc3)c3ccccc23)CC1 | 35.5 µM [falling, single point] | –
CCOc1cc(C(=O)NCc2ccc3c(c2)CCN3C(=O)c2ccc(F)cc2)cc(OCC)c1OCC | 0.631 µM [rising, full curve, poor fit] | –
Nc1ccc(C(=O)C(=O)c2ccc(N)cc2)cc1 | 12.6 µM [falling, partial curve, poor fit] | –
COc1ccc(OC)c(N/C(=N\c2nc(C)cc(C)n2)NC(=O)c2ccco2)c1 | 29.1 µM [falling, single point] | –
O=C(O)CSc1ncnc2c1sc1nc(-c3ccccc3)c3c(c12)CCC3 | 0.562 µM [falling, full curve] | –
Nc1c(C(=O)NCCN2CCOCC2)c2nc3ccccc3nc2n1CCc1ccccc1F | 0.103 µM [rising, full curve, poor fit] | –
c1csc(Cc2nn3c(-c4n[nH]c5c4CCC5)nnc3s2)c1 | 3.66 µM [rising, full curve] | –
N#C/C(=C\c1ccc(F)c(F)c1)C(=O)NC1CCCCC1 | 3.26 µM [falling, full curve] | –
COC(=O)C1=C(C)N(Cc2ccccc2)C(=NCCN2CCOCC2)N[C@H]1CCc1ccccc1 | 20.6 µM [falling, single point] | –
OCCN(CCO)c1ccc(C(c2ccccc2Cl)c2ccc(N(CCO)CCO)cc2Cl)c(Cl)c1 | 29.1 µM [falling, single point] | 16.4 µM [rising, partial curve, poor fit]
COc1ccc(-c2cc(CCC(=O)N3CCN(c4cc(C)ccc4C)CC3)on2)cc1 | 29.1 µM [falling, single point] | –
COCCCNC(=O)Cc1c(C)c2cc3c(cc2oc1=O)OC(C)(C)CC3 | 1.26 µM [falling, partial curve] | –
COc1ccc2c(c1OC)C(=O)N(c1ccc(F)cc1)C2 | 2.82 µM [rising, partial curve, poor fit] | –
O=c1c(Cl)c(NCc2ccc(F)cc2)cnn1C12CC3CC(CC(C3)C1)C2 | 2.31 µM [rising, full curve] | –
COc1cc(CNC(=O)C2CCCN2S(=O)(=O)c2ccccc2)cc(OC)c1OC (configuration not stated) | 11.2 µM [rising, partial curve, poor fit] | –

Entries of single compounds, looked up by structure:
`CNc1nc(Sc2ccc(C)cc2)cc(C(F)(F)F)n1` in the list: AC50 [1]: 10 µM [rising, single point]
`c1csc(Cc2nn3c(-c4n[nH]c5c4CCC5)nnc3s2)c1` in the list: AC50 [1]: 3.66 µM [rising, full curve]
`CCn1c(NCc2cc(Cl)ccc2O)nc2ccccc21` in the list: AC50 [1]: 22.4 µM [falling, single point]

Further records.

SMILES | AC50 [1] | AC50 [2]
COC(=O)/C=C1/S/C(=N/NC(=O)c2ccccc2)NC1=O | 0.316 µM [falling, full curve, poor fit] | –
O=C(N/N=C/c1cccc(O)c1)c1ccc(COc2ccc3c(c2)CCC3)o1 | 20.6 µM [falling, partial curve, poor fit] | –
COc1cccc(CC2(CO)CCCN(Cc3[nH]c4ccc(C)cc4c3C)C2)c1 (configuration not stated) | 35.5 µM [falling, single point] | –
c1ccc(CN2CCN(c3nc4ccccc4n4cnnc34)CC2)cc1 | 6.31 µM [rising, single point] | –
Cc1ccc2[nH]c(=O)c3cc(C(=O)NCCC(C)C)sc3c2c1 | 12.6 µM [rising, partial curve, poor fit] | –
COCC(=O)N1CCN(c2cccc(Cl)c2)CC1 | 0.631 µM [rising, full curve, poor fit] | –
CCC(C)N1CC(O)=C(c2nc3ccccc3[nH]2)C1=N (configuration not stated) | 20 µM [rising, partial curve, poor fit] | –
NS(=O)(=O)c1ccc(N2N=C(c3ccccc3)CC2c2cccc(Cl)c2)cc1 (configuration not stated) | 29.1 µM [rising, single point] | –
CCC(CC)Nc1ccc(C(CC(N)=O)NC(=O)c2ccccc2)cc1[N+](=O)[O-] (configuration not stated) | 14.1 µM [rising, partial curve] | –
O=C(NCc1cccnc1)C(=O)NCC1OCCN1S(=O)(=O)c1cc(F)ccc1F (configuration not stated) | 5.62 µM [rising, single point] | –
CC1=CC(=O)N(c2cccc(C(F)(F)F)c2)C1c1ccc(Cl)cc1 (configuration not stated) | 39.8 µM [falling, partial curve, poor fit] | –
CC1=Nc2ccccc2/C1=C/c1c(N)n2c(S(=O)(=O)C(C)C)nsc2nc1=O | 5.01 µM [falling, partial curve] | –
COCc1[nH]nc2c1C(c1cc(OC)c(O)c(OC)c1)C(C#N)=C(N)O2 (configuration not stated) | 11.2 µM [falling, partial curve] | –
Cn1c(SCC(=O)c2ccccc2)nnc1-c1cnccn1 | 22.4 µM [falling, single point] | –
Cc1cc(C)cc(NC(=S)/N=C(\N)Nc2nc(C)c3ccccc3n2)c1 | 25.9 µM [falling, partial curve, poor fit] | –
Cc1nc2c(-c3ccc(F)cc3)cnn2c2c1CCC2 | 2.24 µM [rising, full curve] | –
Cc1ccc(/C=C2\CCC(C3CCCC3)C2=O)cc1 (configuration not stated) | 11.6 µM [rising, partial curve] | –
O=C(O)C1Cc2ccccc2CN1S(=O)(=O)c1ccccc1 (configuration not stated) | 11.2 µM [falling, partial curve, poor fit] | –
CCOC(=O)CSc1cc(C)nc(N)n1 | 0.731 µM [falling, partial curve, poor fit] | –
COc1ccc(OC)c2sc(NC(=O)C3=COCCO3)nc12 | – | 0.282 µM [rising, full curve, poor fit]

Reference: PubChem BioAssay AID493014 (National Center for Advancing Translational Sciences (NCATS), 2011)
